Data from patent publication US20180016620A1 (KITE PHARMA, published 2018).
These are yes or no findings as the source states them, for the method shown. Some results given as binding are weak or reduced against the parent protein; the word gives no strength. No end group written: not given here.

What was measured:
[1] = target: T1, 8 mer subsequence GKPGSGEG; assay: epitope mapping ELISA with truncated biotinylated peptides
T1 sequence (peptide): GKPGSGEG

[2] = target: T1, 8 mer subsequence GKPGSGEG; assay: epitope mapping ELISA, summary table of FIG. 7
[3] = target: T2, subsequence KPGSG; assay: epitope mapping ELISA, summary table of FIG. 7
T2 sequence (peptide): KPGSG

[4] = target: T3, 10 mer subsequence …; assay: epitope mapping ELISA with truncated biotinylated peptides
T3 sequence (peptide): GSGKPGSGEG

[5] = target: T4, subsequence SGKPGSGE; assay: epitope mapping ELISA, summary table of FIG. 7
T4 sequence (peptide): SGKPGSGE

[6] = target: T3, 10 mer subsequence …; assay: epitope mapping ELISA, summary table of FIG. 7

Measured: binding

B1: Clone 16 anti-linker antibody (antibody, V domains shown)
VH: QSLEESGGRLVTPGTPLTLTCTVSGSDISSYHMGWVRQAPGKGLEYIGIIVSSGSAYYATWAKGRFTISRTSTTVDLKITSPTTEDSATYFCARNQYSGYGFSFWGPGTLVTVSS
VL: AVVLTQTPSPVSTAVGGTVTINCQSSHSVYYGDWLAWYQQKPGQPPKLLIYRASNLASGVPSRFKGSGSGTQFTLTISGVQCDDAATYYCLGGYDDDGETAFGGGTEVVVKD
notes: Rabbit monoclonal from a hybridoma; also called Clone 16-6; 16-6
binds: [1] | [2] | [3]

B2: Clone 8 anti-linker antibody (antibody, V domains shown)
VH: QSVEESGGRLVTPGTPLTLTCTASGFTISNLAIIWVRQAPGKGLEYIGDIDGRGDIYCATWAKGRFTISKTSTTLDLRFTSPTTEDTATYFCAVDGDGSGWGDFNFWGPGTLVTVSS
VL: AYDMTQTPASVEVAVGGTVSIKCQASQSISTALAWYQQKPGQPPKLLIYRASTLASGVSSRFKGSGSGTQFTLTISGVECDDAATYYCQQGWSTVNVDNVFGGGTEVVVRD
notes: Rabbit monoclonal from a hybridoma; also called Clone 8-4; 8-4
binds: [4] | [5] | [6]
